# Source: PubChem BioAssay AID2685 (National Center for Advancing Translational Sciences (NCATS), 2010)
# This is one part of the list. Further columns of the screen follow, without active or inactive calls. The list favours compounds with an active or inconclusive main result. The note in brackets gives the kind of curve behind each potency; many fits are weak.
# Assay: qHTS Assay for Lipid Storage Modulators in Drosophila S3 Cells;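 as to cell number change: cells counted by Cell Tracker Red CMTPX staining in the red channel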
# Settings: BODIPY lipid droplet fluorescence, 18-24 h; for cell number change: measured here: cell count max response, cells fed with added oleic acid
# How it was run: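 Laser-scanning cytometry quantifies lipid droplet accumulation (500–530 nm total intensity; droplet/cell object ratio) in oleic acid-fed (400 uM added) Drosophila S3 cells treated with a concentration series. 20 uM Triacsin C defined 100% inhibition.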
# [1] = measured here: cell number channel AC50, cells fed with added oleic acid
# [2] = measured here: lipid fluorescence (Fed channel) AC50, cells fed with added oleic acid
Structure (SMILES),cell number change,AC50 [1],AC50 [2]
Cc1cc(C)cc(OCC(=O)NNC(=O)CN2C(=O)c3ccccc3C2=O)c1,-15.2%,–,–
COc1ccc(C(=O)C2CCN(CC(=O)Nc3ccc(OC)cc3OC)CC2)cc1,-11.5%,–,–
O=C(NC(=S)N1CCN(c2ccc([N+](=O)[O-])cc2)CC1)c1ccccc1F,-61.1%,"9.2 µM [falling, partial curve]","29.1 µM [falling, single point]"
CCCCn1c(N)c(N(CCOC)C(=O)c2cc(C)oc2C)c(=O)[nH]c1=O,-25%,–,"9.2 µM [rising, partial curve]"
COc1ccccc1CNC(=O)CSc1nc(=O)n(Cc2ccncc2)c2c1CCC2,121%,"7.31 µM [falling, single point]",–
O=C1/C(=C/c2ccccc2F)SC(=S)N1CCC(=O)N1CCCCC1CCO (stereo not given),-15.8%,–,"4.11 µM [falling, single point]"
CCC(C)c1ccc(O)c(NC(=O)c2cccnc2)c1 (stereo not given),23.7%,"0.0184 µM [rising, full curve, poor fit]","0.58 µM [falling, single point]"
COc1cc2[nH]cc(C(=O)NCc3ccccc3)c(=O)c2cc1OC,-1.31%,–,"14.6 µM [falling, partial curve]"
CC(C)NC(=O)CSc1ccccc1C(=O)NNC(=O)Cn1ccc(C(F)(F)F)n1,16.8%,–,"0.92 µM [rising, full curve, poor fit]"
CCc1ccc(NC(=O)Nc2ccc3c(c2)N(C)C(=O)CS3)cc1,-48.6%,"29.1 µM [falling, single point]","6.51 µM [falling, partial curve]"
Nc1n[nH]c(=S)n1/N=C1/C(=O)Nc2ccccc21,-29%,"0.0058 µM [falling, full curve]",–
CCOC(=O)Cc1csc(NS(=O)(=O)c2cc(Cl)ccc2Cl)n1,15%,–,"7.31 µM [rising, partial curve]"
COc1ccccc1NC(=O)CSc1nc2ccccc2nc1N1CC(C)OC(C)C1 (stereo not given),14.7%,–,"10.3 µM [rising, partial curve, poor fit]"
CC(=O)OCC(=O)Nc1c(C)cc(C)cc1C,–,–,"0.651 µM [rising, single point]"
CC1(C)CC(=O)C(C=Nc2cccnc2/N=C/C2=C(O)CC(C)(C)CC2=O)=C(O)C1,16%,"0.82 µM [rising, full curve, poor fit]","0.651 µM [rising, full curve, poor fit]"
COc1cccc(OCc2cc(C(=O)N3CCNC(=O)C3Cc3ccccc3)no2)c1 (stereo not given),24.4%,–,–
O=C(NC(=S)NCCCN1CCOCC1)c1cccc2ccccc12,63.8%,"18.4 µM [rising, single point]",–
CSCCC(NC(N)=O)C(=O)NCc1ccc(Cl)cc1 (stereo not given),33.5%,–,–
Cc1ccnc2nc(C(=O)OCC(=O)NC3CCC(C)CC3)nn12 (stereo not given),-10.9%,–,–
C/C(CCC(=O)OC[C@H]1O[C@H](C#Cc2ccccc2)C=C[C@@H]1Oc1ccc(C)cc1)=N\OC[C@@H](O)[C@H]1O[C@@H]2OC(C)(C)O[C@@H]2[C@H]1O,-11.4%,–,"32.6 µM [rising, single point]"
COc1ccc(C)cc1Nc1nc(N)c2ccccc2n1,-32.8%,"25.9 µM [falling, single point]",–

# Two records drawn at random from those above, as already listed:
Structure (SMILES),cell number change,AC50 [1],AC50 [2]
CCCCn1c(N)c(N(CCOC)C(=O)c2cc(C)oc2C)c(=O)[nH]c1=O,-25%,–,"9.2 µM [rising, partial curve]"
CCOC(=O)Cc1csc(NS(=O)(=O)c2cc(Cl)ccc2Cl)n1,15%,–,"7.31 µM [rising, partial curve]"

# (next part)

Structure (SMILES),cell number change,AC50 [1],AC50 [2]
COc1ccccc1N1CCN(c2ncnc3sc(C(=O)NCC4CCCO4)c(C)c23)CC1 (stereo not given),-19.2%,–,"2.06 µM [falling, full curve]"
CCC(C)c1ccc(NC(=O)N2CCN(C(=O)C3CCCO3)CC2)cc1 (stereo not given),11%,–,"5.8 µM [falling, single point]"
CSCc1cc(N(C)c2ccccc2)nc(-c2ccccc2)n1,17.6%,–,"29.1 µM [rising, single point]"
CCC1Nc2ncnc(N3CCCCC3)c2N(Cc2ccccc2)C1=O (stereo not given),32.3%,"18.4 µM [rising, single point]",–
COc1ccc(-c2cc(C(=O)N3CCN(C(=O)c4ccccc4F)CC3)[nH]n2)cc1,38.1%,"4.11 µM [rising, full curve]",–
C=C(C)CNC(=S)N=Nc1c(O)[nH]c2ccc([N+](=O)[O-])cc12,–,"0.103 µM [rising, partial curve, poor fit]","0.116 µM [rising, single point]"
NC(=O)c1ccccc1NCC(=O)c1ccc(F)cc1,2.78%,–,"0.58 µM [falling, single point]"
CC(=O)N(C)c1ccc(NC(=O)COc2ccc(Br)cc2C)cc1,-0.946%,–,"11.6 µM [rising, partial curve]"
COc1cccc(C2c3c(oc4ccc(Cl)cc4c3=O)C(=O)N2c2cc(C)on2)c1OC (stereo not given),-7.3%,–,–
CCOC(=O)c1c(C)[nH]c(C(=O)N/N=C/c2ccc(OC)c(OC)c2)c1C,-5.66%,–,"0.411 µM [rising, partial curve, poor fit]"
CC(C)CN1CCNC(=O)C1CC(=O)NCCc1ccc(C(F)(F)F)cc1 (stereo not given),-16.5%,–,–
CN(NC1OC(=O)c2ccccc21)c1ccccc1[N+](=O)[O-] (stereo not given),21.4%,"2.31 µM [falling, single point]","3.26 µM [falling, single point]"
NC(=O)CCCn1c(C(=O)c2ccc(Cl)cc2)c2ccc([N+](=O)[O-])cc2[n+]1[O-],-36.7%,"3.66 µM [falling, full curve]","0.461 µM [falling, partial curve]"
CCN(CC(=O)Nc1ccccc1C(F)(F)F)C(=O)CCOc1ccc(C)cc1,-27.3%,–,"6.51 µM [falling, single point]"
CC(NC(=O)Nc1ccc(Cl)cc1)c1ccc2c(c1)OCO2 (stereo not given),-21.3%,"0.651 µM [rising, full curve, poor fit]",–
CCOCC(=O)Nc1ccc(S(=O)(=O)NCC2CCCO2)cc1 (stereo not given),5.74%,–,–
O=C(Nc1ccc(OC(F)(F)F)cc1)C1CCCN(S(=O)(=O)c2cnc[nH]2)C1 (stereo not given),7.03%,–,"29.1 µM [rising, single point]"
COc1ccc(C(=O)NCCCNC(=O)c2ccc(C)nc2)cc1,14.8%,–,"0.13 µM [falling, full curve, poor fit]"
Cc1cc(C(=O)COC(=O)c2cc(Cl)ccc2N)c(C)n1Cc1ccco1,32.9%,–,–
COc1ccc(CCn2c(N3CCN(C)CC3)nc3c2c(=O)[nH]c(=O)n3C)cc1,27%,–,"6.51 µM [rising, single point]"
COc1cc(NC(=O)c2ccccc2)c(OC)cc1NC(=O)CN1C(=O)N(C)C2(CCCCC2)C1=O,24.5%,–,–

Structure (SMILES),cell number change,AC50 [1],AC50 [2]
Cc1cc(NC(=O)CSc2nc(-c3ccccc3Cl)nc3c2c(=O)n(C)c(=O)n3C)no1,-23%,–,–
CCCCNC(=O)OCC(CC)NC(=O)OC(C)C (stereo not given),-25.7%,"4.11 µM [falling, full curve, poor fit]","1.03 µM [falling, full curve]"
O=C(N/N=C\c1c(O)ccc2ccccc12)c1ccc(Cn2cccn2)o1,-18.9%,"0.0259 µM [falling, full curve, poor fit]","0.13 µM [falling, full curve]"
CC(Oc1ccc(Br)cc1)C(=O)NCC1(N2CCCCC2)CCCCC1 (stereo not given),-22.6%,"0.164 µM [falling, full curve, poor fit]",–
O=C(NCCCN1CCN(c2cccc(Cl)c2)CC1)C1CCC(=O)N1Cc1ccccc1Cl (stereo not given),-29.7%,–,–
Nc1nc(SCC(=O)NCCCN2CCOCC2)nc2sc3c(c12)CCC3,-20.7%,–,"6.51 µM [falling, single point]"
c1ccc(-c2csc(N3CCN(c4ccccn4)CC3)n2)cc1,-32.1%,"13 µM [falling, partial curve, poor fit]","1.16 µM [rising, single point]"
COC(=O)CSc1ncnc2c1sc1nc(N3CCOCC3)c3c(c12)CCCC3,5.18%,–,"16.4 µM [rising, single point]"
COCCCNC(=S)N/N=C/c1ccccc1O,18.9%,–,"0.517 µM [falling, single point]"
Cc1ccc(N)cc1CN1CCCC1=O,19.1%,–,"20.6 µM [rising, single point]"
COc1ccc(OC)c(C(c2nnnn2C(C)(C)C)N2CCc3ccccc3C2)c1 (stereo not given),–,–,"29.1 µM [rising, partial curve, poor fit]"
O=C(c1ccc(F)cc1)c1ccc(N2CCCC2)cc1,12.2%,–,–
C=CCn1c(=S)[nH]c2ccc(Br)cc2c1=O,-19.5%,–,"1.84 µM [rising, partial curve]"
Cc1ccc2nc3c(cc(C(=O)NCCc4ccccc4)c(=N)n3CC3CCCO3)c(=O)n2c1 (stereo not given),11.7%,–,"6.51 µM [falling, single point]"
CC1CCN(C(=O)CSCc2ccc(Cl)cc2)CC1,3.72%,–,–
COc1ccc(N2CCN(C(=O)COC(=O)CCOc3ccc(C(C)(C)C)cc3)CC2)cc1,–,"1.46 µM [falling, full curve, poor fit]",–
O=C(COc1coc(CN2CCN(c3ccc(F)cc3)CC2)cc1=O)NCC1CCCO1 (stereo not given),32.3%,"16.4 µM [rising, single point]",–
Cc1ccc(C(=O)NNC(=O)CSc2nnc(-c3ccccc3)n2Cc2ccccc2)cc1,8.48%,–,"3.66 µM [rising, single point]"
CCCn1nc(C(=O)N2CC(=O)Nc3ccccc32)c2ccccc2c1=O,-14.6%,–,–
COCCCN1C(=O)C(O)=C(C(=O)c2ccco2)C1c1ccc(Br)cc1 (stereo not given),15.7%,–,"0.517 µM [falling, single point]"
